Results as given in the supplement of paper PMC6078165.
Values are relative to the signal before dosing, not to a vehicle control; the signal also falls without drug.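 Labels refer to human fibroblasts, largely primary: uterine (C12385, HUF), lung (H6013), bone (Hs27A), adrenal (HADF), skin (WS1), plus mammary HMF and breast cancer-associated Hs343T. Cancer lines are basal-like or mesenchymal-like triple-negative breast cancer. The paper counts as hits responses shifting over 3x the replicate standard deviation. The tissue of the other fibroblasts is not given here.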

Test system: MDAMB231
Experiment: relative JC-1 red fluorescence (viability) vs pre-drug, coculture with fibroblast (fraction); higher = more viable cancer cells
Experimental: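 JC-1 labelled TNBC cells cocultured 1:1 (1,500 cells each) with CellTrace Violet stained primary or stromal fibroblasts in 384-well plates in FluoroBrite medium, treated with one of 42 anticancer drugs at 0.1, 1, 10 or 100 uM. JC-1 red fluorescence (mitochondrial integrity in cancer cells only) was read by plate reader every 8 h for 72 h. Values are normalised to each well's pre-drug value. The stock of one drug was tenfold lower, so its dose labels may be too high.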

CO[C@@]12[C@H](COC(N)=O)C3=C(C(=O)C(C)=C(N)C3=O)N1C[C@@H]1N[C@@H]12 [Mitomycin C]
relative JC-1 red fluorescence
Settings	8 h	16 h	24 h	32 h	40 h	48 h	56 h	64 h	72 h
0.1 µM, coculture fibroblast: C12385	0.748	0.726	0.603	0.584	0.523	0.49	0.436	0.423	0.395
0.1 µM, coculture fibroblast: H6013	0.901	0.841	0.7991	0.766	0.715	0.67	0.652	0.613	0.56
0.1 µM, coculture fibroblast: H6019	0.742	0.662	0.575	0.541	0.464	0.425	0.36	0.314	0.266
0.1 µM, coculture fibroblast: H6076	0.911	0.7975	0.7226	0.681	0.619	0.578	0.528	0.498	0.469
0.1 µM, coculture fibroblast: H6231	0.914	0.8107	0.72	0.6551	0.59356	0.558	0.515	0.492	0.465
0.1 µM, coculture fibroblast: HADF	0.882	0.841	0.7779	0.7292	0.686	0.627	0.607	0.58	0.543
0.1 µM, coculture fibroblast: HCFa	0.894	0.831	0.793	0.763	0.722	0.672	0.661	0.631	0.581
0.1 µM, coculture fibroblast: HCPF	0.9121	0.806	0.6986	0.6649	0.5976	0.551	0.498	0.46	0.43
0.1 µM, coculture fibroblast: HHSteC	0.9072	0.833	0.779	0.731	0.663	0.627	0.583	0.557	0.497
0.1 µM, coculture fibroblast: HMF	0.895	0.832	0.788	0.764	0.741	0.709	0.68	0.665	0.652
0.1 µM, coculture fibroblast: HPFa	0.945	0.8773	0.813	0.761	0.727	0.676	0.616	0.571	0.516
0.1 µM, coculture fibroblast: HUF	0.823	0.689	0.7073	0.57956	0.518	0.49647	0.44	0.431	0.412
0.1 µM, coculture fibroblast: Hs5	0.929	0.823	0.741	0.692	0.643	0.586	0.549	0.52	0.4986
0.1 µM, coculture fibroblast: Hs27A	0.8754	0.803	0.7454	0.715	0.666	0.593	0.612	0.592	0.554
0.1 µM, coculture fibroblast: Hs343T	0.8916	0.804	0.721	0.687	0.626	0.571	0.515	0.479	0.451
0.1 µM, coculture fibroblast: WS1	0.7369	0.674	0.53295	0.5132	0.456	0.417	0.362	0.341	0.309
1 µM, coculture fibroblast: C12385	0.7335	0.695	0.641	0.604	0.53	0.52	0.493	0.492	0.474
1 µM, coculture fibroblast: H6013	0.873	0.807	0.762	0.728	0.662	0.629	0.588	0.554	0.511
1 µM, coculture fibroblast: H6019	0.748	0.687	0.626	0.561	0.488	0.46	0.398	0.355	0.314
1 µM, coculture fibroblast: H6076	0.917	0.826	0.76	0.724	0.666	0.617	0.577	0.534	0.504
1 µM, coculture fibroblast: H6231	0.915	0.782	0.7075	0.659	0.588	0.549	0.501	0.48	0.451
1 µM, coculture fibroblast: HADF	0.846	0.801	0.761	0.728	0.69919	0.673	0.6479	0.6273	0.579
1 µM, coculture fibroblast: HCFa	0.85219	0.8023	0.76	0.725	0.675	0.624	0.583	0.537	0.489
1 µM, coculture fibroblast: HCPF	0.894	0.765	0.702	0.668	0.601	0.561	0.516	0.4867	0.4644
1 µM, coculture fibroblast: HHSteC	0.8691	0.831	0.79	0.744	0.7	0.664	0.619	0.586	0.537
1 µM, coculture fibroblast: HMF	0.874	0.75	0.7	0.6618	0.6208	0.584	0.563	0.539	0.511
1 µM, coculture fibroblast: HPFa	0.956	0.92	0.89	0.841	0.833	0.798	0.742	0.709	0.661
1 µM, coculture fibroblast: HUF	0.825	0.702	0.7	0.586	0.517	0.495	0.451	0.44	0.4265
1 µM, coculture fibroblast: Hs5	0.892	0.768	0.689	0.625	0.569	0.508	0.478	0.451	0.426
1 µM, coculture fibroblast: Hs27A	0.8707	0.815	0.766	0.745	0.698	0.6472	0.6514	0.632	0.582
1 µM, coculture fibroblast: Hs343T	0.8847	0.735	0.665	0.608	0.558	0.505	0.462	0.438	0.408
1 µM, coculture fibroblast: WS1	0.7157	0.649	0.584	0.526	0.49	0.465	0.427	0.418	0.4
